In PMC5578672:
Results are given in words; binding and its absence hold for the method and conditions named. Some results given as binding are weak or reduced against the parent protein; the word gives no strength. Where a sequence is shown, tags or fusion partners need not be part of it.

Target: T1, Drosophila Piwi, tagged version (Drosophila), Q9VKM1
T1 chain: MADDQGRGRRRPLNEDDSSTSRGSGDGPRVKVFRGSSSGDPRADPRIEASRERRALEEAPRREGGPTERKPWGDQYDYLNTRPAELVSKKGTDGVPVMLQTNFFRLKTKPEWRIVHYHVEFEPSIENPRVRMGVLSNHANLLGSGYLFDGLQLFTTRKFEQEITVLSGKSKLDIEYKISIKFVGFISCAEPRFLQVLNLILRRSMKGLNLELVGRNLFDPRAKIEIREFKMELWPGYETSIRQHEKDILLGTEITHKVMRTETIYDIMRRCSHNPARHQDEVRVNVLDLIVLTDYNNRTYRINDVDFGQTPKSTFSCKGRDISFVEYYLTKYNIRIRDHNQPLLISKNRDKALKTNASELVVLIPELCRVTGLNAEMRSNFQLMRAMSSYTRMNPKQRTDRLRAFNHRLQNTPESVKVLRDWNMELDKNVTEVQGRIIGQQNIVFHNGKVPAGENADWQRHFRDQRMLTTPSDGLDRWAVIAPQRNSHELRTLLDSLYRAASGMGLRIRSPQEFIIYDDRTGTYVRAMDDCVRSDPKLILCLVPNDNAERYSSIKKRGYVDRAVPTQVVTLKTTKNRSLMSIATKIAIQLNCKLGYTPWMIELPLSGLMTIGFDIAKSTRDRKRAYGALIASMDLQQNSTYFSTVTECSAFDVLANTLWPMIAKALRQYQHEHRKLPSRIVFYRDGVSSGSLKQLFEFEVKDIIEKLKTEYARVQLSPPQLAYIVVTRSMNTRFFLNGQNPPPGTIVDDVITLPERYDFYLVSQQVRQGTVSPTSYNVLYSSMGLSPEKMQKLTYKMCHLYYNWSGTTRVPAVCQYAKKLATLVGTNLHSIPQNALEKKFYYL
Assay: tandem affinity co-purification; tagged Armi and Piwi co-expressed in insect cell cultures, tandem affinity purification, Coomassie gel; bands identified by mass spectrometry and Western blotting for the tags
Settings: remark: other sources report otherwise

binding: binds
B1: Drosophila Armitage (Armi), tagged version, Q6J5K9 1-1188 (protein)
chain: MFTYVSKFFTNPDRNREDILESLDRENSFLDQKLMEEKMDQQLKANPNEINGVLSNKIAELTHGLSEMDVSKESSCTARKGVITSLDGDRGVIDKDVLFETKVAEDIILDLHVGCVVEYLTFTTGEAMRVVKVKSILEHSWEDTSQKEIEKAVDNLKNEKPTFFNTETRSVLGLISQRLASSIDVETEYGQLTVELDNIEMNFIPTNGDRVRLECNIQLDDGFVDKQGEILEVTKLFPTRIQEGEKCIVERVYVHMVVLGPETYILKTDLPTGTDLHLGDIVLADLIECQYSKFTRRAIKITPLEKNFGATKLTQQSSMGSSGSGKAVTVTGVNRFITAELWQKESVSLKLTNNLNRTLRLESITVCNDSESQLSVVSPLESKEISSGSEITVTFEIHTQFLGEAIEKYVLNFDLLKVRRVFTVIVCKTKEEVAEAEKRMIAAEALMAPGRNSQERSRFYANQVWCNKVDVIPGQQIVTKRRFVALRLGCFEVPKELRQICLTSERRQEMIKAIEQHYSFLTEPLSIKTYMHRFRLLLHLEEIECFVNFRNYDRDRAHFLRDGEFLTLQIENLAERRPSLVIGDTLRVINPWSDPDSQTTKSYEGIIHKVLFDRILLKFHSSFQEKYNGEDYRLEFYFSRYSFRKQHHAISKIVGVMGEDFLFPSKVTKRENPQLDVYMKDDDMYLYDSKLEWYNQSLNSIQKRAVFNILRGEAENIPYVLFGPPGSGKTMTLIETLLQLVRNLPGARILVGTPSNSSADLVTKRLIDSKALLQGDFIRLVSYNQVEKDLIPPEIMSYCATSDVGAVGSCEDKMMVTESGLKLRCQAKFIGTHRITISTCTTLGNFLQLGFPAGHFTHVLFDEAGQCTEPETMVPIVMLTKKRSQVVLSGDPRQLQSIVTSRIASKMGFSISFLERLLERSPYRKDLQRFPESSGYNPLVLTKLLYNYRALPSIMSIYSRLFYDDELIPVLSEKDSRESRLLSKLRCVFESEKDIPQAHGTFFYGIIGENRQNNDSPSWFNPQEVREVFLMTIALYRANVTADQIGIITPYQKQVKMLRSMFIGTDVVMPKIGSVEEFQGQERDIILISTVRSSEEILRMDARFSLGFVRCSKRLNVAVSRARAMMIIFGNPHLLAVDECWRQLILFCVKNNAYFGCDLPQMVINQKDEVPVCLETFVPSLNTTDDLN
